Experimental data published in publication PMC12561377.
Results are given in words; binding and its absence hold for the method and conditions named. Binding seen in cells or lysates may run through a third protein. Binding calls can cover weak binding; strength is not graded here. Where a sequence is shown, tags or fusion partners need not be part of it.

By UniProt entry, the sequences of proteins in these tests, tags left out. Where a name states a change or a piece, a line headed by the entry shows the natural chain unless it says otherwise.
UniProt Q96GR4: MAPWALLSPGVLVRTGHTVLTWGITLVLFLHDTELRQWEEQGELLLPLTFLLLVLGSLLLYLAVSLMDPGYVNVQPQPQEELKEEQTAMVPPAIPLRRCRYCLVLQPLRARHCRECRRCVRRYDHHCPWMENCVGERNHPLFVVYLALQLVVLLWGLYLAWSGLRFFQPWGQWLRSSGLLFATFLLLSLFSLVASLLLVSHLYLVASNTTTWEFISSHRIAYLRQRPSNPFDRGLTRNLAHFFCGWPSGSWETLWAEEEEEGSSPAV

Target: GST-ZDHHC12 (recombinant protein of ZDHHC12) (UniProt Q96GR4)
Experiment: pull-down; GST fusion protein from E. coli BL21 captured on glutathione‐agarose beads, washed, incubated with cell lysate of the other protein overnight at 4 °C; only the target purified

binding: binds
B1: HDAC8 (in the cell lysate used for the GST pull-down) (enzyme, UniProt Q9BY41 1-377)
chain: MEEPEEPADSGQSLVPVYIYSPEYVSMCDSLAKIPKRASMVHSLIEAYALHKQMRIVKPKVASMEEMATFHTDAYLQHLQKVSQEGDDDHPDSIEYGLGYDCPATEGIFDYAAAIGGATITAAQCLIDGMCKVAINWSGGWHHAKKDEASGFCYLNDAVLGILRLRRKFERILYVDLDLHHGDGVEDAFSFTSKVMTVSLHKFSPGFFPGTGDVSDVGLGKGRYYSVNVPIQDGIQDEKYYQICESVLKEVYQAFNPKAVVLQLGADTIAGDPMCSFNMTPVGIGKCLKYILQWQLATLILGGGGYNLANTARCWTYLTGVILGKTLSSEIPDHEFFTAYGPDYVLEITPSCRPDRNEPHRIQQILNYIKGNLKHVV
